This passage reports binding results from PMC11490714.

Assay [1] deals with T1, FLAG-USP39 (human) (UniProt Q53GS9).
T1 sequence: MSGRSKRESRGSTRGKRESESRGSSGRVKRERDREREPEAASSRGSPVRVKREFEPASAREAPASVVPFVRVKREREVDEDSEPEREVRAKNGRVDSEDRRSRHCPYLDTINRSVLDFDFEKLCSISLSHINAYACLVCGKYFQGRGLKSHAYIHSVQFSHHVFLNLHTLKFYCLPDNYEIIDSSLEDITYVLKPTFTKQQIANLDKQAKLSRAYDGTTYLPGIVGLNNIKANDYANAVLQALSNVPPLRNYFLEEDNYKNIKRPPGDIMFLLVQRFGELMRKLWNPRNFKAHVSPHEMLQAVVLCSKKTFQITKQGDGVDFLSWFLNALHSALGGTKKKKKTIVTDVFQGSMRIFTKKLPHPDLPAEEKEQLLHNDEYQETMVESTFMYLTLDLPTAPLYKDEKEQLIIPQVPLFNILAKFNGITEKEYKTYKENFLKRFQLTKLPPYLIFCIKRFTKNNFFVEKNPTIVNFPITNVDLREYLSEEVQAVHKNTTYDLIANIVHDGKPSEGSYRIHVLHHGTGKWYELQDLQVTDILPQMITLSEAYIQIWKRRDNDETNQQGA
Briefly: co-IP; both partners overexpressed (FLAG- and HA-tagged) in HEK293T for 48 h, modified radioimmunoprecipitation assay buffer, anti-FLAG affinity gel, Western blot. A general note: A western blot detects proteins with antibodies after separation by electrophoresis.

The target in assay [2] is T2, FLAG-RBM39 (human) (UniProt Q14498).
T2 sequence: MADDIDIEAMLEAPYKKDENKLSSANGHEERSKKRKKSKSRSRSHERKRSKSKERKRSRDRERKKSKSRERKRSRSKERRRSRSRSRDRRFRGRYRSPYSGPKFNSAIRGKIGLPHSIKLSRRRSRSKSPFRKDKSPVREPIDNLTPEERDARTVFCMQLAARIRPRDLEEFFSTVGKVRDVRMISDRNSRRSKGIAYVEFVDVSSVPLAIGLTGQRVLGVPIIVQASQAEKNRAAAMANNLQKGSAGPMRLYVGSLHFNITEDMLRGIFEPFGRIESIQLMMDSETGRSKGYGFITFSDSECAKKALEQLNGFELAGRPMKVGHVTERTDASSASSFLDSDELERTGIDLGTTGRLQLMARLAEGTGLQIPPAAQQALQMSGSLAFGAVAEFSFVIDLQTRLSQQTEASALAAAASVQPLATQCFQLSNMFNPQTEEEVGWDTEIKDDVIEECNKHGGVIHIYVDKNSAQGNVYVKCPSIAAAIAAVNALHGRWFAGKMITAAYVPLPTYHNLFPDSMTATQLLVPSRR
The assay is described as above.

The target in assay [3] is T3, HA-RBM39 (human) (UniProt Q14498).
T3 sequence: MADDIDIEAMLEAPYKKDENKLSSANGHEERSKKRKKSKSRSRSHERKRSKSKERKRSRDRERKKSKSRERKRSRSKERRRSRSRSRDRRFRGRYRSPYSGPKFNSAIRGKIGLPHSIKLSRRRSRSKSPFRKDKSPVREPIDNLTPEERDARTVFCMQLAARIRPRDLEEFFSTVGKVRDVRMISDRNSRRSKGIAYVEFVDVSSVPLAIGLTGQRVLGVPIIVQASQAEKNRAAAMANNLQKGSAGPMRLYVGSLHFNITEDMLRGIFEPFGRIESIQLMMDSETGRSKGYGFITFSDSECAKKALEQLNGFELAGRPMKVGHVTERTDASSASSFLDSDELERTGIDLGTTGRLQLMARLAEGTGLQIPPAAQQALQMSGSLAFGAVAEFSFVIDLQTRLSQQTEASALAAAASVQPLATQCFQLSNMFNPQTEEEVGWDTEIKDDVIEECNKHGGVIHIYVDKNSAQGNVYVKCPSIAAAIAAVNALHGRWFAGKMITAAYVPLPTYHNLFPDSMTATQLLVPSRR
The experiment in a line: co-IP; FLAG-USP39 or HA-RBM39 expressed alone in HEK293T for 48 h; anti-FLAG affinity gel or anti-HA magnetic beads; endogenous partner detected by Western blot.

These are yes or no findings as the source states them, for the method shown. In cells and extracts the contact can be indirect. Some binding calls cover weakened binding; strength is not graded here. Tags and fused reporters may be left off the sequences shown.

B1: HA-RBM39 N-terminal domain (aa 1-147) (domain or fragment, UniProt Q14498 1-147)
chain: MADDIDIEAMLEAPYKKDENKLSSANGHEERSKKRKKSKSRSRSHERKRSKSKERKRSRDRERKKSKSRERKRSRSKERRRSRSRSRDRRFRGRYRSPYSGPKFNSAIRGKIGLPHSIKLSRRRSRSKSPFRKDKSPVREPIDNLTP
Turning to B1, the binding entry in assay [1] is recorded as “binds”.

B2: HA-USP39 (enzyme, UniProt Q53GS9 1-565)
chain: MSGRSKRESRGSTRGKRESESRGSSGRVKRERDREREPEAASSRGSPVRVKREFEPASAREAPASVVPFVRVKREREVDEDSEPEREVRAKNGRVDSEDRRSRHCPYLDTINRSVLDFDFEKLCSISLSHINAYACLVCGKYFQGRGLKSHAYIHSVQFSHHVFLNLHTLKFYCLPDNYEIIDSSLEDITYVLKPTFTKQQIANLDKQAKLSRAYDGTTYLPGIVGLNNIKANDYANAVLQALSNVPPLRNYFLEEDNYKNIKRPPGDIMFLLVQRFGELMRKLWNPRNFKAHVSPHEMLQAVVLCSKKTFQITKQGDGVDFLSWFLNALHSALGGTKKKKKTIVTDVFQGSMRIFTKKLPHPDLPAEEKEQLLHNDEYQETMVESTFMYLTLDLPTAPLYKDEKEQLIIPQVPLFNILAKFNGITEKEYKTYKENFLKRFQLTKLPPYLIFCIKRFTKNNFFVEKNPTIVNFPITNVDLREYLSEEVQAVHKNTTYDLIANIVHDGKPSEGSYRIHVLHHGTGKWYELQDLQVTDILPQMITLSEAYIQIWKRRDNDETNQQGA
As to B2, the binding result in assay [2] is “binds”.

B3: endogenous USP39 (enzyme, UniProt Q53GS9 1-565)
chain: MSGRSKRESRGSTRGKRESESRGSSGRVKRERDREREPEAASSRGSPVRVKREFEPASAREAPASVVPFVRVKREREVDEDSEPEREVRAKNGRVDSEDRRSRHCPYLDTINRSVLDFDFEKLCSISLSHINAYACLVCGKYFQGRGLKSHAYIHSVQFSHHVFLNLHTLKFYCLPDNYEIIDSSLEDITYVLKPTFTKQQIANLDKQAKLSRAYDGTTYLPGIVGLNNIKANDYANAVLQALSNVPPLRNYFLEEDNYKNIKRPPGDIMFLLVQRFGELMRKLWNPRNFKAHVSPHEMLQAVVLCSKKTFQITKQGDGVDFLSWFLNALHSALGGTKKKKKTIVTDVFQGSMRIFTKKLPHPDLPAEEKEQLLHNDEYQETMVESTFMYLTLDLPTAPLYKDEKEQLIIPQVPLFNILAKFNGITEKEYKTYKENFLKRFQLTKLPPYLIFCIKRFTKNNFFVEKNPTIVNFPITNVDLREYLSEEVQAVHKNTTYDLIANIVHDGKPSEGSYRIHVLHHGTGKWYELQDLQVTDILPQMITLSEAYIQIWKRRDNDETNQQGA
As for B3, the binding result in assay [3] is on record as “binds”.
